From US8901313B2, “6,5-heterocyclic propargylic alcohol compounds and uses therefor” (Genentech, Inc., priority 2011, dated 2014)
pIC50, pKi: −log10 of the molar value. The match of structure and compound is tentative.

Sequences of proteins named here, by UniProt entry; tags and fusion partners are left off.
UniProt Q99558, whole entry: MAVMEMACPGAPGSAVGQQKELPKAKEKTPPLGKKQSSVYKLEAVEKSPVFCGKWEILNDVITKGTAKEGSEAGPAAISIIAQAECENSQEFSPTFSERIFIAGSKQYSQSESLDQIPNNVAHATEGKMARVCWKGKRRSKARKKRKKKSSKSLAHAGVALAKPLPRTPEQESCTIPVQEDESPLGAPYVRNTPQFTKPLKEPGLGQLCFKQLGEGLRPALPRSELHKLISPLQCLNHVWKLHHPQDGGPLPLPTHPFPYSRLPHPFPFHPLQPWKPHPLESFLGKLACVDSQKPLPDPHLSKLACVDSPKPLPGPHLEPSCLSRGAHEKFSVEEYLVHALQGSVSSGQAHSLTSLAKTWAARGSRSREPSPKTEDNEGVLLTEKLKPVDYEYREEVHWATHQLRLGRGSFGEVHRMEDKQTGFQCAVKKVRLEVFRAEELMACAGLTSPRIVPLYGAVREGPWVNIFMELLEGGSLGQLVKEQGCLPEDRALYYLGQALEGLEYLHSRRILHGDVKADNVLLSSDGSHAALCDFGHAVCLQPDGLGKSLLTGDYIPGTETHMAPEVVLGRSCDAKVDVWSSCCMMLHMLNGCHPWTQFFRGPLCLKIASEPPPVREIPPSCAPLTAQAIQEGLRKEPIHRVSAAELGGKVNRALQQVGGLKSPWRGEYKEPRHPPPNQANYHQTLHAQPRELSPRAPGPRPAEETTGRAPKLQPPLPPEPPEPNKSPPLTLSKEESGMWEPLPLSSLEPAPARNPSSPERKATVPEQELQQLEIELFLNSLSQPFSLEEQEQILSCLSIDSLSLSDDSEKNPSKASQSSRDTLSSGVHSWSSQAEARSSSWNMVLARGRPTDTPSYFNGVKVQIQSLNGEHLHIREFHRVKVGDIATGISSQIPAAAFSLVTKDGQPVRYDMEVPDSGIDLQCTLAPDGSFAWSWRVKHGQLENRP

What was measured:
[1] = system: NF-kB signaling through NIK in human embryonic kidney 293 cells; test: 293-NIK NF-kB-Luciferase reporter assay; details: read-out: 293-NIK NF-kB-Luciferase (IC50); comparative data, Tables 16A-16D
Text: (§1) (1) The first assay was used to profile whether a test compound can inhibit the NF-kB signally through NIK inhibition without affecting cell viability. In this assay, human embryonic kidney 293 cells was stably transfected with a tetracycline-inducible NIK DNA construct containing a cytomegalovirus promoter plus two reporter DNA constructs. One reporter encoded firefly luciferase under the control of three repeats of an NF-kB response element from the ELAM-1 gene and reflects the level of NIK activity in the cells, whereas the other reporter constitutively expressed Renilla luciferase under the control of the herpes simplex virus thymidine kinase promoter and served as a general measure of cell viability. Cells were incubated with different concentrations of compounds (0.2% DMSO final) in medium containing 1 ug/mL doxycycline and 10% tet-system approved fetal bovine serum (Clontech) for 24 hours, after which the reporters' signals were detected using the Dual Glo luciferase detection system (Promega) according to the vendor's protocol. […]

[2] = system: REL-A (p65) nuclear translocation in HeLa cells; test: NIK RelA Translocation Assay (classical NF-kB signaling); details: read-out: NIK RelA Translocation (IC50); comparative data, Tables 16A-16D
Procedure: (§2) (2) A second set of cell assay was used to define the selectivity of NIK inhibitors toward inhibition of classical vs. non-classical NF-kB signaling and rely on quantification of the nuclear translocation of p52 (NF-kB2) and REL-A (p65) using high content cellular imaging. For the p52 (non-classical NF-kB signaling) nuclear translocation assay, HeLa cells were treated with different concentrations of compounds (0.2% DMSO final) in medium containing 10% fetal bovine serum and then stimulated with 100 ng/mL of an anti-lymphotoxin beta receptor antibody (R&D Systems) for 5 hours. In the REL-A nuclear translocation assay, HeLa cells were incubated with compounds (0.2% DMSO final) for 4.5 hours in medium containing 10% fetal bovine serum before stimulating them with 10 ng/mL tumor necrosis factor (TNF)-α (R&D Systems) for 30 minutes. Cells were fixed with 4% paraformaldehyde, permeabilized by adding 0.1% Triton X-100 in phosphate buffered saline, and then incubated with either 2 ug/mL anti-p52 antibody (Millipore) or 400 ng/mL anti-REL-A (p65) antibody (Santa Cruz Biotechnology). […] Imaging was carried out using an Opera reader (Perkin Elmer) and data are analyzed with the aid of Acapella software (Perkin Elmer). The p52 or REL-A translocation into the nucleus was quantified by the ratio of the nuclear to cytoplasmic signal intensity. […]

[3] = system: p52 (NF-kB2) nuclear translocation in HeLa cells; test: NIK p52 Translocation Assay (non-classical NF-kB signaling); details: read-out: NIK p52 Translocation (IC50); comparative data, Tables 16A-16D
Procedure: as §2

[4] = molecular target: nuclear factor-kappa B (NF-kB)-inducing kinase (NIK) (Homo sapiens, UniProt Q99558); test: NIK Enzyme Inhibition Assay (Transcreener ADP assay); details: read-out: NIK ADP (Ki); comparative data, Tables 16A-16D
[5] = system: human embryonic kidney 293 cells; test: 293-NIK TK Renilla Luciferase reporter (general measure of cell viability); details: read-out: 293-NIK TK Renilla Luciferase (IC50); comparative data, Tables 16A-16D
Text: as §1

pIC50 [2]: < 4.70 | pIC50 [3]: 6.29 | pKi [4]: 9.52
Compound: CC(O)(C#Cc1ccc2[nH]c(=O)n(-c3ccnc(N)n3)c2c1)c1nccs1 (centres unmarked) [Example T1-21, 1-(2-aminopyrimidin-4-yl)-6-(3-hydroxy-3-(thiazol-2-yl)but-1-ynyl)-1H-benzo[d] imidazol-2(3H)-one]
pIC50 [1]: 6.23 | pIC50 [5]: 5.28
